Laboratory results as given in PMC9243006.
No constants are given. Whether binding was seen depends on the method and setting. Binding can be weak; no strength is given.

Biological target: T1, purified complement factor I (UniProt Q61129)
T1 sequence: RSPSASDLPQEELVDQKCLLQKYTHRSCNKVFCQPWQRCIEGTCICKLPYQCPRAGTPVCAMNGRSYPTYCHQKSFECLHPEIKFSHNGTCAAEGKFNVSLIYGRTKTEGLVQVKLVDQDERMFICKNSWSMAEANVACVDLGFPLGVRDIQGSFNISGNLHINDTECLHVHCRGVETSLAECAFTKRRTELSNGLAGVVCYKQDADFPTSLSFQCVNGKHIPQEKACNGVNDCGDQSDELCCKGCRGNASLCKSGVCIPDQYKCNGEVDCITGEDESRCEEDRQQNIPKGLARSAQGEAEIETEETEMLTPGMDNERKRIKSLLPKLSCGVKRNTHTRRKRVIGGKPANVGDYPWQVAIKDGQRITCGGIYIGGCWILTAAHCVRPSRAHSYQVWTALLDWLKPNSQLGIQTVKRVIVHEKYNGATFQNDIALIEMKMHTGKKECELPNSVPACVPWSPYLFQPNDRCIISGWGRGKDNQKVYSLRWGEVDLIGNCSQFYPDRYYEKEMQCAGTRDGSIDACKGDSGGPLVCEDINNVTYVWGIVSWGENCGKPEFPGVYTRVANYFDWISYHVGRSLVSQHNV
Assay: ELISA; CFI (20 µg/ml) or C3b (20 µg/ml) coated overnight at 4 °C; rmCD46 or mutants (40 µg/ml) at 37 °C for 2 h; anti-His detection; both purified

Substance | binding
rmCD46ΔCCP2 (mouse) (domain or fragment) | binds
rmCD46ΔCCP12 (mouse) (domain or fragment) | binds
